Results are given in words; binding and its absence hold for the method and conditions named. Some entries that bind do so weakly or less than the wild type.
Assays:
[1] = molecular target: T1, active human C1s (CompTech A104 C1s Enzyme) (human) (UniProt P09871); assay: ELISA, C1s coated on plate
T1 sequence (looked up): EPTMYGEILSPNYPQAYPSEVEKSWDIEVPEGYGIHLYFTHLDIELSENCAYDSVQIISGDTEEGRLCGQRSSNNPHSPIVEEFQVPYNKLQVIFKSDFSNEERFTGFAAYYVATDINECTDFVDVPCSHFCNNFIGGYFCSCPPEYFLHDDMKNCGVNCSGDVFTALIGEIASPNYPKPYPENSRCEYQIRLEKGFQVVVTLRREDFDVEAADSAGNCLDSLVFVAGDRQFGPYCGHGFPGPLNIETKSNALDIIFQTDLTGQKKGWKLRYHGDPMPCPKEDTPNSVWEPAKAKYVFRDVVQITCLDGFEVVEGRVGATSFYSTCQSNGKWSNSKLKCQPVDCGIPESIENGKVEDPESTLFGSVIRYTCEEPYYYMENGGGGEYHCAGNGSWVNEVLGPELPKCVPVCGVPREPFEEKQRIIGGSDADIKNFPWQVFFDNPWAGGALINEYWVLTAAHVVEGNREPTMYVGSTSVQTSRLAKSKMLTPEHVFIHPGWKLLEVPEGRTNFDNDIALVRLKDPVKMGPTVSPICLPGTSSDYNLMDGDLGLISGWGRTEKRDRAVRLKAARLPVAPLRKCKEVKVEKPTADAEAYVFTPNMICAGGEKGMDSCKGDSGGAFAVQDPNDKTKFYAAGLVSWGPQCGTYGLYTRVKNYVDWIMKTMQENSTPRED

[2] = molecular target: T2, human C1s mutant M20 (A320S) (human, UniProt P09871 16-688); assay: ELISA, mutant coated on plate
T2 construct: The entry is the mutant itself
T2 sequence: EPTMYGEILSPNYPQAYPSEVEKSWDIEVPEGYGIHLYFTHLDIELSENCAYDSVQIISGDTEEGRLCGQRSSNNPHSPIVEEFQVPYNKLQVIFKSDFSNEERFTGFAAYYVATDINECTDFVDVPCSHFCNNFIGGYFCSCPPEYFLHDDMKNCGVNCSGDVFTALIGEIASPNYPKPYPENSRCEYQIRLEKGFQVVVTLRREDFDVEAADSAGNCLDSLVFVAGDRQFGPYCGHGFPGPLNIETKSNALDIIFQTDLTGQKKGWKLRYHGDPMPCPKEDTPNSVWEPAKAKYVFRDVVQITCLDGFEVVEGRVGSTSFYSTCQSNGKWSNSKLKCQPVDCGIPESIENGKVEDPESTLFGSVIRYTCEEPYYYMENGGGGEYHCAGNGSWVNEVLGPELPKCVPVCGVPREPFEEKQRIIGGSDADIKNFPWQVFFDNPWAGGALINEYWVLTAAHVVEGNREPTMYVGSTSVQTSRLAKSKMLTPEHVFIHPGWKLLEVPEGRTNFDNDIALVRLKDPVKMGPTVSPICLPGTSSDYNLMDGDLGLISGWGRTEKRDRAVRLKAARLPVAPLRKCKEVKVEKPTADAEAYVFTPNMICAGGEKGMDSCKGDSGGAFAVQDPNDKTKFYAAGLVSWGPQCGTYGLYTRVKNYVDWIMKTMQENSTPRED

[3] = molecular target: T1, active human C1s (CompTech A104 C1s Enzyme) (human); assay: BLI (Octet RED96e), antibody on AHC biosensor, C1s in solution
[4] = molecular target: T1, active human C1s (CompTech A104 C1s Enzyme) (human); assay: BLI (Octet RED96e), antibody on AHC biosensor, active human C1s in solution

Measured: binding

B1: Anti-C1s antibody hz2-7(H1L2) (antibody, V domains shown)
VH: EVQLLESGGGLVQPGGSLRLSCAASGFTFSNYFMNWVRQAPGKGLEWVSEIRLKFTNYATHYADSVKGRFTISRDDSKSTLYLQMNSLRAEDTAVYYCTRDYGSRNGYFDYWGQGTLVTVSS
VL: DIVMTQTPLSLPVTPGEPASISCRSSKSLLHSNGNTFLYWFLQKPGQSPQLLIYRMSNLASGVPDRFSGSGSGTDFTLKISRVEAEDVGVYYCMQHLEYPYTFGGGTKLEIKR
notes: Humanized, human IgG1 / kappa; also called hz2-7(1L2)
binds: all assays above

B2: Anti-C1s antibody hz2-8 (H1L2 G80A) (antibody, V domains shown)
VH: QVQLVQSGAEVKKPGASVKVSCKASGFNIKEYYMHWVRQAPEQGLEWMGWIDPENADTIYAQKFQGRVTITADTSTNTAYMELSSLRSEDTAVYYCARSRLFFAYWGQGTLVTVSS
VL: DIQMTQSPKSLSASVGDRVTITCRASQDVRTALDWYQQKPGQSPKLLIYSASYRYSGVPSRFSGSGSGTDFTLTISSLQPEDFATYYCQQQYTTPYTFGQGTKLEIKR
notes: Humanized variant with G80A in HC CDR2 (already in the entry), human IgG1 / kappa
binds: [2]

B3: Anti-C1s antibody hz2-8 (H1L2 G80A/T82A) (antibody, V domains shown)
VH: QVQLVQSGAEVKKPGASVKVSCKASGFNIKEYYMHWVRQAPEQGLEWMGWIDPENADAIYAQKFQGRVTITADTSTNTAYMELSSLRSEDTAVYYCARSRLFFAYWGQGTLVTVSS
VL: DIQMTQSPKSLSASVGDRVTITCRASQDVRTALDWYQQKPGQSPKLLIYSASYRYSGVPSRFSGSGSGTDFTLTISSLQPEDFATYYCQQQYTTPYTFGQGTKLEIKR
notes: Humanized variant with G80A and T82A in HC CDR2 (already in the entry), human IgG1 / kappa
binds: all assays above
